According to US20070197540A1, “Pyrazolopyrimidines” (priority 2003, published 2007):
Some entries share one result that the patent states for a list of compounds.

Tests used:
Assay type in all cases: in vivo
Venturia inaequalis = assay: Venturia test (apple)/protective; conditions: apple plants, protective spray, application rate 100 g/ha, evaluation 10 days after inoculation
Botrytis cinerea = assay: Botrytis test (bean)/protective; conditions: bean plants, protective spray, application rate 500 g/ha, evaluation 2 days after inoculation
Podosphaera leucotricha = assay: Podosphaera test (apple)/protective; conditions: apple plants, protective spray, application rate 100 g/ha, evaluation 10 days after inoculation

Measured: efficacy

CC1CCN(c2c(-c3ccc(F)cc3Cl)c(Cl)nc3c(CO)cnn23)CC1 [Example 1, 3-hydroxymethyl-5-chloro-6-(2-chloro-4-fluorophenyl)-7-(4-methylpiperidino)pyrazolo[1,5-a]pyrimidine]
more than 90%: all assays above

COCc1cnn2c(N3CCC(C)CC3)c(-c3ccc(F)cc3Cl)c(Cl)nc12 [Example 2, 3-methoxymethyl-5-chloro-6-(2-chloro-4-fluorophenyl)-7-(4-methylpiperidno)pyrazolo[1,5-a]pyrimidine]
more than 90%: all assays above
